Some of these results come from one statement about several compounds together.
System: Normotensive Dutch Belted rabbits
Assay: Intraocular pressure (IOP) measurements in rabbits
Assay type: in vivo, rabbit
Settings: doses of 0.5 and 0.1%, topical
Method: Intraocular Pressure (IOP) Measurements in Rabbits
Normotensive Dutch Belted rabbits (2.3 kg) of either sex were maintained on a 12-hour light/dark cycle during these experiments. Intraocular pressure (IOP) was measured using a calibrated pneumatonometer (Alcon Applanation Pneumatonograph), and results expressed in millimeters of mercury (mmHg). Before tonometry, one drop of 0.05% proparacaine was applied to the corneas to minimize any discomfort to the animal. Two base-line (control) readings were taken at (−0.5 and 0 hr.) after which Compounds I, Ia or II were administered topically (unilaterally applied into the conjunctival sac) in a 25 μl volume with the contralateral (fellow) eye receiving an equal volume of vehicle. A masked design was utilized, where the person involved in drug administration and measurement of IOP had no knowledge of the solutions' contents. Subsequently, IOP measurements were taken at 0.5, 1, 2, 3, 4, 5 and 6 hr after topical applications of drug. At the end of each day's measurements, stability of the tonometer was determined using the calibrator/verifier.

Compound	duration of ocular hypotensive response
CC(C)C[C@@H](C(=O)O[C@H]1C[C@H]2Cc3c([nH]c4ccccc34)[C@]2(C)[C@@]2(C)CC[C@@]34O[C@@H](C(=O)C=C3[C@]12O)C(C)(C)O4)N(C)C [Compound Ia]	at least 6 hours
CC(C)[C@@H](C(=O)O[C@H]1C[C@H]2Cc3c([nH]c4ccccc34)[C@]2(C)[C@@]2(C)CC[C@@]34O[C@@H](C(=O)C=C3[C@]12O)C(C)(C)O4)N(C)C [Ib]	at least 6 hours

Reference: patent US7294646B2, “Maxi-k channel blockers, methods of use and process for making the same” (Merck & Co. Inc., priority 2002, dated 2007)
